Data as given in PubChem BioAssay AID1159593 (NIAID, 2016)
Purpose: 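Knock-downs that alter LPS-induced nuclear entry of p65 in mouse macrophages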. System: RAW264.7 macrophages of mouse, with reporters for p65 (GFP) and the Tnf promoter (mCherry). Knock-down reagent: single siRNA against mouse genes. Duration: 48 to 72 hours after siRNA transfection, then LPS for 40 min. Challenge: LPS (Salmonella minnesota R595) for 40 min before fixation; dose not given. Measured: 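Imaged nuclear over cytoplasmic GFP-p65 intensity after 40 min LPS, normalised per plate by median and MAD, robust z-score versus negative controls, mean of replicates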. Scale: p65 translocation z-score: higher = more nuclear NF-kappaB p65 after LPS. Hit rule: 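Activity score grows with absolute z: 25 beyond 1, 50 beyond 1.5, 75 beyond 2, 100 beyond 2.5; active calls here sit at about z 1.5 or more either way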. Meaning of the calls: active = changed p65 translocation (either direction); inactive = no clear change.
This is one part, drawn at random, of 756 reagents tested. 137 of them (18%) count as active. 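Active means p65 translocation went either up or down; genes were judged on the median of six siRNAs, not single siRNAs.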 The numbers tell different reagents against one gene apart. Not given: the amount of reagent.

gene knocked down	siRNA no.	p65 translocation z-score	Call
Tnf	1	-0.577	inactive
Tnf	2	-0.162	inactive
Tnf	3	-0.398	inactive
Tnf	4	-1.03	inactive
Tnf	5	-0.368	inactive
Tnf	6	-1.04	inactive
Nfkbib	1	-0.78	inactive
Nfkbib	2	0.354	inactive
Nfkbib	3	0.523	inactive
Nfkbib	4	0.555	inactive
Nfkbib	5	-0.739	inactive
Nfkbib	6	0.577	inactive
Ube2v1	1	1.57	active
Ube2v1	2	-1.21	inactive
Ube2v1	3	0.16	inactive
Ube2v1	4	-0.813	inactive
Ube2v1	5	0.846	inactive
Ube2v1	6	-1.2	inactive
Akt1	1	-1.56	active
Akt1	2	-2.67	active
Akt1	3	0.427	inactive
Akt1	4	3.9	active
Akt1	5	-1.31	inactive
Akt1	6	-1.1	inactive
Arf6	1	-0.455	inactive
Arf6	2	-0.324	inactive
Arf6	3	-0.714	inactive
Arf6	4	-0.262	inactive
Arf6	5	-0.222	inactive
Arf6	6	-0.918	inactive
Ly96	1	-0.422	inactive
Ly96	2	-2.92	active
Ly96	3	-0.838	inactive
Ly96	4	-2.28	active
Ly96	5	-0.619	inactive
Ly96	6	-1.1	inactive
Rac1	1	1.77	active
Rac1	2	0.227	inactive
Rac1	3	-2.31	active
Rac1	4	-0.151	inactive
Rac1	5	-0.762	inactive
Rac1	6	-1.3	inactive
Nfkb2	1	0.451	inactive
Nfkb2	2	-0.373	inactive
Nfkb2	3	0.748	inactive
Nfkb2	4	0.918	inactive
Nfkb2	5	-0.264	inactive
Nfkb2	6	2.17	active
Egr1	1	0.356	inactive
Egr1	2	-1.54	active
Egr1	3	-1.18	inactive
Egr1	4	0.0878	inactive
Egr1	5	0.164	inactive
Egr1	6	-0.257	inactive
Pik3r5	1	0.464	inactive
Pik3r5	2	0.664	inactive
Pik3r5	3	-0.445	inactive
Pik3r5	4	0.403	inactive
Pik3r5	5	-1.77	active
Pik3r5	6	-1.29	inactive
Mapk11	1	0.841	inactive
Mapk11	2	-0.353	inactive
Mapk11	3	1.03	inactive
Mapk11	4	-0.555	inactive
Mapk11	5	-0.0178	inactive
Mapk11	6	0.857	inactive

Continued (14 carried over from the part before).
gene knocked down	siRNA no.	p65 translocation z-score	Call
Egr1	5	0.164	inactive
Egr1	6	-0.257	inactive
Pik3r5	1	0.464	inactive
Pik3r5	2	0.664	inactive
Pik3r5	3	-0.445	inactive
Pik3r5	4	0.403	inactive
Pik3r5	5	-1.77	active
Pik3r5	6	-1.29	inactive
Mapk11	1	0.841	inactive
Mapk11	2	-0.353	inactive
Mapk11	3	1.03	inactive
Mapk11	4	-0.555	inactive
Mapk11	5	-0.0178	inactive
Mapk11	6	0.857	inactive
Mapk8	1	1.17	inactive
Mapk8	2	-0.509	inactive
Mapk8	3	0.156	inactive
Mapk8	4	-0.351	inactive
Mapk8	5	-0.899	inactive
Mapk8	6	-0.891	inactive
Pik3cd	1	0.0183	inactive
Pik3cd	2	0.486	inactive
Pik3cd	3	-0.105	inactive
Pik3cd	4	0.611	inactive
Pik3cd	5	-1.29	inactive
Pik3cd	6	1.98	active
Traf6	1	-2.26	active
Traf6	2	-1.22	inactive
Traf6	3	-1.93	active
Traf6	4	-0.967	inactive
Traf6	5	-1.6	active
Traf6	6	-2.41	active
Tab3	1	-0.0907	inactive
Tab3	2	0.233	inactive
Tab3	3	-0.944	inactive
Tab3	4	0.275	inactive
Tab3	5	1.63	active
Tab3	6	1.13	inactive
Mapk13	1	-0.903	inactive
Mapk13	2	-2.09	active
Mapk13	3	-0.231	inactive
Mapk13	4	0.201	inactive
Mapk13	5	0.588	inactive
Mapk13	6	-0.431	inactive
Ikbkg	1	-1.58	active
Ikbkg	2	-0.825	inactive
Ikbkg	3	0.249	inactive
Ikbkg	4	-2.36	active
Ikbkg	5	-1.34	inactive
Ikbkg	6	1.3	inactive
Map2k3	1	0.53	inactive
Map2k3	2	-0.186	inactive
Map2k3	3	-0.34	inactive
Map2k3	4	-0.563	inactive
Map2k3	5	-1.48	inactive
Map2k3	6	-0.357	inactive
Ets1	1	0.473	inactive
Ets1	2	0.209	inactive
Ets1	3	-0.74	inactive
Ets1	4	1.39	inactive
Ets1	5	-2.24	active
Ets1	6	0.237	inactive
